The results in this text go back to article PMC8619434 (Viruses, 2021).

Like-named read-outs stand apart in the source and are kept apart here.

This test deals with SARS-CoV-2 spike protein pseudovirus. Kind of test: organism not typed. It is filed as cell-based.

For orientation: IC50 means the concentration at which inhibition is half-maximal. Turning to `CN1CC2c3ccccc3Oc3ccc(Cl)cc3C2C1` (centres unmarked) [asenapine], the IC50 (293T/ACE2, read-out: IC50 of SARS-CoV-2-S pseudovirus infectivity) turned out to be 2550 nM and the IC50 (read-out: IC50 of SARS-CoV-2-S pseudovirus infectivity) is 2600 nM.
